The other results are listed elsewhere or left out. Further columns of the screen follow, without active or inactive calls. Compounds called inactive in the main read-out are mostly missing here. The note in brackets gives the kind of curve behind each potency; many fits are weak.

The assay in a line: qHTS Assay to Find Inhibitors of Chronic Active B-Cell Receptor Signaling. The settings on record: ABC-DLBCL IkBa-CBG/CBR reporter, luminescence ratio (green luciferase fused to IkBa over red control in TMD8 lymphoma cells), 4 h. Summed up: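 Doxycycline induced both beetle luciferases in TMD8 lymphoma cells; IKK-driven degradation limits the IkappaBalpha-fused green signal, while red luminescence normalises for cell number and nonspecific effects. Compounds tested up to 46 uM, 4 hrs.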

Where [1] appears, read: measured here: CBR red luminescence, cell number.
Where [2] appears, read: measured here: IkBa-CBG green luminescence.

`COC(=O)[C@H](C)NC(=O)Nc1ccc(C)c(C)c1`: under setting [1], the AC50 was 18.4 µM [rising, single point].
`O=C(c1ccccc1)N1CCN(Cc2cccc(Oc3ccccc3)c2)CC1`: under setting [1], the AC50 was 29.1 µM [falling, single point].
The same measure, in the same setting: for `CC1CCCN(CCOc2ccc3ccccc3c2Br)C1` (stereo not given) the value was 35.5 µM [falling, single point]; for `COCCN(CCOC)S(=O)(=O)c1ccc(C(=O)Nc2sc3c(c2C(N)=O)CCCCC3)cc1`, 1.03 µM [falling, full curve]; for `O=C(CNc1cccc(S(=O)(=O)N2CCCC2)c1)Nc1cccc(F)c1`, 29.1 µM [falling, single point].
Take `O=C(c1ccncc1)N1c2ccccc2Sc2ccccc21`: the AC50 under setting [1] is 35.5 µM [falling, single point].
On to `O=C(N=Nc1c(O)[nH]c2ccc([N+](=O)[O-])cc12)c1ccccc1[N+](=O)[O-]`, for which, under setting [1], the AC50 is 15.8 µM [falling, single point].
Still for that read-out and setting: for `CNC(=O)CN1C(=O)NC(c2ccccc2)(c2ccccc2)C1=O` the value was 6.31 µM [falling, single point].
`Cc1cc(C(F)(F)F)nn1Cc1n[nH]c(=S)n1-c1ccc(F)cc1`: under setting [1], the AC50 is 29.1 µM [rising, single point].
In the case of `Cn1c(=O)n(C)c2cc(NC(=O)c3ccccc3[N+](=O)[O-])c(Br)cc21`, the half-maximal activity concentration (AC50) under setting [1] was 35.5 µM [rising, single point].
As for `Cc1nn(-c2ccccc2)c(N)c1N=Nc1ccc2ccccc2c1`, the AC50 under setting [1] is 16.4 µM [rising, partial curve, poor fit].
As for `COc1ccc(N2CCN(C(=O)c3ccc(NC(=O)C4=CSCCO4)cc3)CC2)cc1`, the AC50 under setting [1] is 31.6 µM [rising, single point].
Take `COc1ccccc1/C=C1\SC(=S)N(CCC(=O)NCCc2ccc(O)cc2)C1=O`: the AC50 under setting [1] was 12.6 µM [falling, partial curve].
Still for that read-out and setting: next, `O=C(CCc1nc2ccccc2c(=O)[nH]1)N1CCN(C/C=C/c2ccccc2)CC1`: 0.184 µM [rising, full curve, poor fit]; `O=C(CSc1nnc(C2CC2)n1C1CC1)c1ccccc1F`: 16.4 µM [falling, partial curve].
On to `CC1=NN(c2ccccc2)C(=O)C1`, for which the concentration at half-maximal activity (AC50) runs as follows: under setting [1], 1 µM [rising, partial curve, poor fit]; under setting [2], 3.16 µM [rising, full curve, poor fit].
For `O=C(CN1CCN(Cc2ccccc2Cl)C1=O)NCc1ccccn1`, the half-maximal activity concentration (AC50) under setting [1] is 5.62 µM [rising, single point].
`Cc1ccc(NC(=O)c2cc(S(=O)(=O)N3CCCC3)cn2C)cc1`: the AC50 is 7.08 µM [falling, full curve] under setting [1] and 11.2 µM [rising, partial curve, poor fit] under setting [2].
In the case of `Cn1ccc2c(OCC(=O)NCc3ccccc3Cl)cccc2c1=O`, the half-maximal activity concentration (AC50) under setting [1] was 35.5 µM [falling, single point].
Take `Cc1ccc(/C=N/NC(=O)Cn2nc(C)c(Br)c2C)o1`: the AC50 under setting [1] is 16.4 µM [falling, single point].
Regarding `CC(=O)N(CCc1ccccc1C)Cc1cc2ccc(C)cc2[nH]c1=O`, the AC50 under setting [1] was 5.62 µM [rising, single point].
On to `COc1cc2c(cc1OC)C(c1cccc(Br)c1)NC(=O)C2` (stereo not given), for which, under setting [1], the concentration at half-maximal activity (AC50) was 14.1 µM [rising, single point].
With `O=C(O)c1cccc(NC(=O)c2ccccc2NC(=O)c2ccco2)c1`, the AC50 under setting [1] was 14.1 µM [falling, partial curve, poor fit].
With `COc1ccc(CNCC(O)COc2cccc3c2OC(C)(C)C3)cc1` (stereo not given), under setting [1], the AC50 is 3.16 µM [falling, partial curve, poor fit].
In the case of `Cc1cc(C)nc(NCc2ccc(Cl)cc2)n1`, the AC50 under setting [1] is 7.94 µM [rising, partial curve, poor fit].
As to `CN(C)C(=O)c1ccc(NC(=O)c2ccccc2SCC(=O)N2CCCC2)cc1`, the AC50 under setting [1] is 0.00461 µM [rising, full curve].
Regarding `COCCCNC(=S)Nc1ccccc1C`, under setting [1], the half-maximal activity concentration (AC50) is 0.82 µM [rising, full curve, poor fit].
In the case of `O=C(O)c1ccc2nc(-c3cc4cc(F)ccc4oc3=O)[nH]c2c1`, the AC50 under setting [2] was 31.6 µM [rising, partial curve, poor fit].
Turning to `CCOCc1cnc(C)nc1NCC(=O)c1c(C)n(C)c2ccc(OC)cc12`, the half-maximal activity concentration (AC50) under setting [1] was 35.5 µM [rising, single point] and the AC50 under setting [2] is 35.5 µM [falling, single point].
As for `Cc1ccc([N+](=O)[O-])cc1S(=O)(=O)N1CCCC1`, the half-maximal activity concentration (AC50) is 0.92 µM [rising, full curve, poor fit] under setting [1] and 2.59 µM [falling, partial curve, poor fit] under setting [2].
For `CC(C)Cc1cc(C(=O)O)n[nH]1`, the AC50 under setting [1] is 0.517 µM [rising, partial curve, poor fit].
Consider `Cc1cc(Cl)c(S(=O)(=O)Nc2ccc3c(c2)OCCO3)cc1OCC(=O)NC1CCCCC1`, for which, under setting [1], the concentration at half-maximal activity (AC50) is 2.06 µM [falling, single point].
As for `O=C(N/C=C/n1cnc2cc(C(F)(F)F)ccc21)c1ccccc1F`, the AC50 under setting [1] is 35.5 µM [rising, single point].
Still for that read-out and setting: for `CCC(CO)Oc1cc(NCc2ccccc2O)c2ncn(C(C)C)c2c1` (stereo not given) the value was 32.6 µM [falling, single point]; for `COc1cc(NC(=O)c2ccnc(N)c2)cc(C(=O)Nc2cccc(C(F)(F)F)c2)c1`, 0.355 µM [falling, full curve, poor fit]; for `CN(C)S(=O)(=O)Oc1ccccc1C(=O)Nc1cccc(C(F)(F)F)c1`, 12.6 µM [rising, single point].
The same measure, in the same setting: for `Cc1cc2nc(Sc3c([N+](=O)[O-])nc(C)n3Cc3ccccc3)[nH]c2cc1C` the value was 2.91 µM [falling, partial curve]; for `COc1ccccc1/C=N/NC(=O)c1ccccc1Cl`, 11.2 µM [falling, single point]; for `Cc1ccc(/C=N/Nc2nc3ccccc3[nH]2)s1`, 11.6 µM [falling, partial curve].
With `O=C(N/N=C/c1cccc(F)c1)c1c(O)c2c([nH]c1=O)CCCC2`, the AC50 under setting [1] is 0.0651 µM [falling, full curve].
On to `O=C(NC(=S)NCc1ccncc1)c1ccccc1`, for which the AC50 under setting [1] is 17.8 µM [falling, single point].

What is called AC50 is the concentration at which the activity in the assay is half-maximal.
